Values quoted from earlier work, collected in patent publication EP0147926B1, “Oral anti-cancer compositions” (priority 1983, dated 1985).
Read-outs that look alike come from different tables or passages of the source.

Tested on: ADJ/PC6A plasmacytoma

N.N.O=C([O-])C1(C(=O)[O-])CCC1.[Pt+2] [cis-[diammine-(1,1-cyclobutanedicarboxylato)platinum(II)l]
therapeutic index (administered orally): 2.4
therapeutic index (administered parenterally): 12.4
